Laboratory results: paper PMC11018632
No constants are given. Whether binding was seen depends on the method and setting. In cells and extracts the contact can be indirect. Some results given as binding are weak or reduced against the parent protein; the word gives no strength. Each block holds one substance with its values, some of them ahead of it.

The chains behind the UniProt entries cited, without tags or fusion partners.
UniProt P21554: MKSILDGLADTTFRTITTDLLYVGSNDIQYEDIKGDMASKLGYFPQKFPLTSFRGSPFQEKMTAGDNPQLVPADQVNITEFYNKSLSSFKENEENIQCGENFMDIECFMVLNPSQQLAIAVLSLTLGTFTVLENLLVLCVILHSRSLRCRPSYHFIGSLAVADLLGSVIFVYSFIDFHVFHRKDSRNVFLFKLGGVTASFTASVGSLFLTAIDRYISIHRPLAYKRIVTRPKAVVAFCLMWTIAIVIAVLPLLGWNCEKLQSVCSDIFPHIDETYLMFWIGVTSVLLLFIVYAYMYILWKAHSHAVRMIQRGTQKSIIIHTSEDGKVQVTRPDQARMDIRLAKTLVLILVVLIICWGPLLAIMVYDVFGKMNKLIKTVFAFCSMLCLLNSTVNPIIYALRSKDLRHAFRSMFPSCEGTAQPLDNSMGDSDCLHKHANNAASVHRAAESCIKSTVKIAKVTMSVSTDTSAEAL
UniProt P47746: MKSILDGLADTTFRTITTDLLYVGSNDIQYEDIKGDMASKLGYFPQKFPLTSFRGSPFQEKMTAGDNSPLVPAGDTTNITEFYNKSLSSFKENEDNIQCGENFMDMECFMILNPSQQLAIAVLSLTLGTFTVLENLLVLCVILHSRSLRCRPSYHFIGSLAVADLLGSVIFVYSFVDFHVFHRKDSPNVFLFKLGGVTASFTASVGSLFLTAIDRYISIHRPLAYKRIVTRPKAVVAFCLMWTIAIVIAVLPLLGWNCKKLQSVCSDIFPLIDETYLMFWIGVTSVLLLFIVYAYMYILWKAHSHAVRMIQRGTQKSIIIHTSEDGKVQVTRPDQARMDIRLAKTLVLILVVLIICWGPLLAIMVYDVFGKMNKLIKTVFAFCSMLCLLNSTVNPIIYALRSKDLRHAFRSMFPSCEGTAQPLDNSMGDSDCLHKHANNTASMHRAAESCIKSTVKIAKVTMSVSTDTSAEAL
UniProt Q96SW2: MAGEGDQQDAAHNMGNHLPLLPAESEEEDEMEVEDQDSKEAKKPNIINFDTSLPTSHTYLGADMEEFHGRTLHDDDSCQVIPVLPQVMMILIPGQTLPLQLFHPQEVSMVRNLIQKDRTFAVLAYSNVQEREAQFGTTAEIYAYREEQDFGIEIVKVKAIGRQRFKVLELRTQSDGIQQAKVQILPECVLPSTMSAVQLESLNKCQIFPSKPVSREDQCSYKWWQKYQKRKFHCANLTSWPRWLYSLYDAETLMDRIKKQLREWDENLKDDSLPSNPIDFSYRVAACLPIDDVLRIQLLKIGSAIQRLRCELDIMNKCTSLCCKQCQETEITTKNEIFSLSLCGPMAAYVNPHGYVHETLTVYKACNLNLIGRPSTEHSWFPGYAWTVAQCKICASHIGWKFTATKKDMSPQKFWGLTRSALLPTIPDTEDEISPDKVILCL
UniProt Q8C7D2: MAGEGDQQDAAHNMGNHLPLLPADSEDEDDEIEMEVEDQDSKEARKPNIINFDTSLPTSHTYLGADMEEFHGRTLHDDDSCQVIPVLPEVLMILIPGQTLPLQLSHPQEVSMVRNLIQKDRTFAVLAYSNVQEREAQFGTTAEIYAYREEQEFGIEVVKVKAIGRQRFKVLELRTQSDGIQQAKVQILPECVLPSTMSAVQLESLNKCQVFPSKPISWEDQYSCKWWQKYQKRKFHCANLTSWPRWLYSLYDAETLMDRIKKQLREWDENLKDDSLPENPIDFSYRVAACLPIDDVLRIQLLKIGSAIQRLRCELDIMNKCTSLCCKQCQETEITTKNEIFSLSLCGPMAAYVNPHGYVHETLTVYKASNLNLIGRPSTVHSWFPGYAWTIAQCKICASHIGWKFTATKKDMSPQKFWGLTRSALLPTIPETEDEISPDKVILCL

What was measured:
human CB1R-myc (human) = human CB1R-myc (human) (UniProt P21554); assay: proximity ligation; in situ PLA (Duolink) in fixed HEK-293T cells transfected with hCB1R-myc and 3xHA-hCRBN; anti-c-myc and anti-HA primary antibodies
[1] = target: human 3xFLAG-CB1R (human) (UniProt P21554); assay: co-IP; HEK-293T cells, transfected; lysates in GST buffer (50 mM Tris-HCl, 10% glycerol, 100 mM NaCl, 2 mM MgCl2, 1% NP-40, pH 7.4); IP with anti-FLAG M2 agarose
human CB1R-Rluc (human) = human CB1R-Rluc (human) (UniProt P21554); assay: FRET or BRET; BRET saturation in HEK-293T cells; constant amount of CB1R-Rluc cDNA and increasing amounts of GFP-hCRBN
[2] = target: endogenous mouse CB1R (hippocampus) (mouse (endogenous in hippocampus)) (UniProt P47746); assay: proximity ligation; in situ PLA (Duolink) in mouse hippocampal sections of WT, GABA-CB1R-KO, Glu-CB1R-KO and CB1R-KO mice; anti-CRBN and anti-CB1R primary antibodies
[3] = target: endogenous mouse CB1R (hippocampus) (mouse (endogenous in hippocampus)) (UniProt P47746); assay: co-IP; adult mouse hippocampal tissue, extracts in DDM buffer (25 mM Tris-HCl pH 7.4, 140 mM NaCl, 2 mM EDTA, 0.5% n-dodecyl-β-D-maltoside); IP with anti-CB1R, anti-CRBN or IgG control, Protein G agarose
[4] = target: mouse 3xFLAG-CB1R (mouse) (UniProt P47746); assay: co-IP; HEK-293T cells, transfected; lysates in GST buffer (50 mM Tris-HCl, 10% glycerol, 100 mM NaCl, 2 mM MgCl2, 1% NP-40, pH 7.4); IP with anti-FLAG M2 agarose

binding (human CB1R-myc (human)): binds
binding [1]: binds
Substance: human 3xHA-CRBN (from UniProt Q96SW2 1-442)

binding (human CB1R-Rluc (human)): binds
Substance: human GFP-CRBN (from UniProt Q96SW2 1-442)

binding [2]: binds
binding [3]: binds
Substance: endogenous mouse CRBN (hippocampus) (from UniProt Q8C7D2 1-445)

binding [4]: binds
Substance: mouse 3xHA-CRBN (from UniProt Q8C7D2 1-445)
